Patent US8859615B2, “Compounds, compositions and methods for reducing toxicity and treating or preventing diseases” (priority 2008, dated 2014)

Tested on: human mammary carcinoma MX-1 cells
Assay: In vitro drug combination (median-effect / combination index, DRI) against MX-1 cell growth (Tables 5, 5A)
Format: cell-based
Details: Table 5; MX-1, 72 hrs; shape of the dose-effect curve
Protocol: The data in Tables 2X, 3A-E, 4, 5, and 6 were obtained using the cell counting kit-8 (CCK-8) tetrazolium assay in a 96-well microplate. Five to seven concentrations of each compound in triplicate were used, and the IC50 values were determined by CompuSyn software automation (Chou T C. and Martin N. ComboSyn, Inc., 2006) based on the median-effect equation and plot (Chou T C. J. Theor. Biol. 59:235-276, 1976; Chou T C. Pharmacol. Rev. 58: 621-681, 2006). […] The r value defines the correlation coefficient of the median-effect plot which signifies the conformity to the mass-action law principle (Chou T C. J. Theor. Biol. 59:235-276, 1976; Chou T C. Pharmacol. Rev. 58:621-681, 2006). These parameters were determined by CompuSyn simulation (available at http://www.combosyn.com).
Efficacy of panaxytriol in combination with Fludelone (an illustrative tubulin-binding anticancer agent) was measured according to procedures described in more detail by Chou et al. (1984) Adv. Enz. Regul., 22:27-55, Chou et al. (1994) Nat'l Cancer Inst., 86:1517-1524, and Chou (2006) Pharmacological Reviews, 68:621-681. […] DRI quantitates synergy as how many fold less of a dose is required to obtain a given level of effect for a combination of drugs versus the same effect for an individual component of the combination.

In the case of `C/C(=C\c1csc(C)n1)[C@@H]1C/C=C(/C(F)(F)F)C/C=C/[C@H](C)[C@H](O)[C@@H](C)C(=O)C(C)(C)[C@@H](O)CC(=O)O1` [Fludelone], the Dose-effect parameter m is reported as 0.619.
`C=C[C@@H](O)C#CC#CC[C@@H](O)[C@H](O)CCCCCCC` [panaxytriol] was tested, and the Dose-effect parameter m was 2.600.
